Some of the results follow.
What was measured:
Experiment in all cases: log2 fold change, soluble protein after heating vs DMSO (PISA); higher = thermal stabilisation; K562 lysate, 10 uM; active = over 0.2 and 3.5 SD of the protein, either way, in both replicates (recomputed)
lapatinib = compound: CS(=O)(=O)CCNCc1ccc(-c2ccc3ncnc(Nc4ccc(OCc5cccc(F)c5)c(Cl)c4)c3c2)o1 [lapatinib]
How it was run: (§1)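 Thermal stability, expressed as log-two fold change relative to solvent controls, is given from duplicates. Crude K562 extract in PBS pH 7.4 with 1 mM MgCl2, at 1 mg/mL protein, was treated with 10 μM compound for 30 min and heated in aliquots for 3 min across 48°C-58°C. After pooling, adjustment to 0.5% NP-40 at 4°C and centrifugation at 21,000xg for 90 min, supernatant protein was measured by TMTpro 16plex LC-MS/MS with channel sums equalised.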

Amino acid sequences for entries named in this document (tags omitted). A change or cut given only in a name is not applied to a line headed by its entry.
UniProt Q8WVI0: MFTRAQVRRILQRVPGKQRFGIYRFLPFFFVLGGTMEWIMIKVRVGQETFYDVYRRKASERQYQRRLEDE
UniProt Q92484: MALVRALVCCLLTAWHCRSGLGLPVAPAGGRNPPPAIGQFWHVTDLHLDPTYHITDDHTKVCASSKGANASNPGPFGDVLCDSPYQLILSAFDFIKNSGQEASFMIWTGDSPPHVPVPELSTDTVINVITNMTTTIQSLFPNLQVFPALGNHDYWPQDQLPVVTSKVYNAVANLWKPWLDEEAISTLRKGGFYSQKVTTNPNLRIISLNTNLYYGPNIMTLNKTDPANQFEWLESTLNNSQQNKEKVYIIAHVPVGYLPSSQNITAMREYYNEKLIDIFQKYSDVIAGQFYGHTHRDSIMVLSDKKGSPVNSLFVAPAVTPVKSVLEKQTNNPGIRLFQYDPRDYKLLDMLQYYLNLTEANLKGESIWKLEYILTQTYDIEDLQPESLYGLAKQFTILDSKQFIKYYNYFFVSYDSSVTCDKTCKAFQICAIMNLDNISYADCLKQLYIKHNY
UniProt Q96RF0: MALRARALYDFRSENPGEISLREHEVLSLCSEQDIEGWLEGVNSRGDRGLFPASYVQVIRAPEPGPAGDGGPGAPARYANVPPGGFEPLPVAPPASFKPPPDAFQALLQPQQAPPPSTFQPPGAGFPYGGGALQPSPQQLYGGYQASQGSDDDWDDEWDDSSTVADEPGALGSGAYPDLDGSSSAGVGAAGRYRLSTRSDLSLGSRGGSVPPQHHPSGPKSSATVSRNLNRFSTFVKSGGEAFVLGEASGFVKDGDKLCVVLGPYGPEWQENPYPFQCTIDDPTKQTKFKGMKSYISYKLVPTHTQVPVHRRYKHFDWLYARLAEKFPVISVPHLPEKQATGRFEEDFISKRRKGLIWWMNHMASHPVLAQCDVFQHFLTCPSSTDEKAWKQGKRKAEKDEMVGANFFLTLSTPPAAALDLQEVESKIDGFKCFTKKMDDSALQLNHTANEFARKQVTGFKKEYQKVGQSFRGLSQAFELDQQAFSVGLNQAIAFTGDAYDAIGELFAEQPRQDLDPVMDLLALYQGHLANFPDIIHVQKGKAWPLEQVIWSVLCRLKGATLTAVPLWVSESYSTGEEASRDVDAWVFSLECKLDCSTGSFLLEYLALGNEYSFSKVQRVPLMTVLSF
UniProt P58511: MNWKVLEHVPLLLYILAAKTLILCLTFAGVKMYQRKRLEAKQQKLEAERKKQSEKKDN
UniProt Q8TAQ2, whole entry, looked up: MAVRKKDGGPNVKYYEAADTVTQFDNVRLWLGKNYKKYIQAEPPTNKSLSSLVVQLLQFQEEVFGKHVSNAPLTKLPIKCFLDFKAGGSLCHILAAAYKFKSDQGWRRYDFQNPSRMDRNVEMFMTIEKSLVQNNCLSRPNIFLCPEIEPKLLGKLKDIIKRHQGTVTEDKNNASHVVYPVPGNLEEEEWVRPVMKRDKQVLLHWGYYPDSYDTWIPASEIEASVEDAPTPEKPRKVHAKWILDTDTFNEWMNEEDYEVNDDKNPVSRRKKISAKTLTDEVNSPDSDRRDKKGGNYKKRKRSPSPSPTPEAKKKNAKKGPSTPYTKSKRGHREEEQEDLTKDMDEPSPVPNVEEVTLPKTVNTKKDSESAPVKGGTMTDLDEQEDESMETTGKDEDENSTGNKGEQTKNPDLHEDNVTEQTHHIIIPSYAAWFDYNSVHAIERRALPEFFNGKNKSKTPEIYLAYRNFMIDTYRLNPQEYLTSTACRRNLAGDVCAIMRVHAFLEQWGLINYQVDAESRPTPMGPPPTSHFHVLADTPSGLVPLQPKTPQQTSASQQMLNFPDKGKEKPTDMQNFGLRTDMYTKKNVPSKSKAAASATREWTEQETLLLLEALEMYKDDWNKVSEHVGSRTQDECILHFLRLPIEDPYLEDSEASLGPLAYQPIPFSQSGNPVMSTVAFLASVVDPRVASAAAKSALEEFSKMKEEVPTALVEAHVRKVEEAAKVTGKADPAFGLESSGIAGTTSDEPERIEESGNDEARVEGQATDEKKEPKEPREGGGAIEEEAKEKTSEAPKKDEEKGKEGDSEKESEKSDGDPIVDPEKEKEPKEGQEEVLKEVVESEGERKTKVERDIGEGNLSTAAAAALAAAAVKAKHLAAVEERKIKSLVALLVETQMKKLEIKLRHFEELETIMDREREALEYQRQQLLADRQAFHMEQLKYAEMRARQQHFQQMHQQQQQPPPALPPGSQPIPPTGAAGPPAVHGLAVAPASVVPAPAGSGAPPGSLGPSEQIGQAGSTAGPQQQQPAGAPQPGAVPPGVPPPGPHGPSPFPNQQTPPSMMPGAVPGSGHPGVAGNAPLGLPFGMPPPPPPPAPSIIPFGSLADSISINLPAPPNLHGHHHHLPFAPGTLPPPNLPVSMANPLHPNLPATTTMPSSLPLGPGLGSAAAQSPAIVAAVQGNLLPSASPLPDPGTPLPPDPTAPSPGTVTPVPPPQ
UniProt O95219: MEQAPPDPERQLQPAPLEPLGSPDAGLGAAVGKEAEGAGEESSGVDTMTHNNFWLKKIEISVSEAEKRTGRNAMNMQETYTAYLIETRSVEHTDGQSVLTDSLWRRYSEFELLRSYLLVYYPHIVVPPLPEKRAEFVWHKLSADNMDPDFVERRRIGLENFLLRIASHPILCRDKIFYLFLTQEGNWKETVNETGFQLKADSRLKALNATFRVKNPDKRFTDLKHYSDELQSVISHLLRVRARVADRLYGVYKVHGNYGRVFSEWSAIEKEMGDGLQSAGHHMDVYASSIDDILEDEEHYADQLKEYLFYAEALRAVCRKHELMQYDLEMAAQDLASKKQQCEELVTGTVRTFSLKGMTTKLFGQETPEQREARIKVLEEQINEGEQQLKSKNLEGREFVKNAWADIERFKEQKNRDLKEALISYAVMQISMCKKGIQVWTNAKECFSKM
UniProt Q13487, whole entry, looked up: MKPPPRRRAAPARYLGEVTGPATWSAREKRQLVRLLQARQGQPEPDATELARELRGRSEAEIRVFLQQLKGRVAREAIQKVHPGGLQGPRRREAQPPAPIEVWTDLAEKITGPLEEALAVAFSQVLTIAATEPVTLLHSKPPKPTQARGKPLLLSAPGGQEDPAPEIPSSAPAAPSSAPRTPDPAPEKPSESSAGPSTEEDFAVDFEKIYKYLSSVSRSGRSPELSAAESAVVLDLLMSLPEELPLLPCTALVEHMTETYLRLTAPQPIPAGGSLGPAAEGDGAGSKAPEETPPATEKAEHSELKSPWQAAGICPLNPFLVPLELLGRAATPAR
UniProt O75971: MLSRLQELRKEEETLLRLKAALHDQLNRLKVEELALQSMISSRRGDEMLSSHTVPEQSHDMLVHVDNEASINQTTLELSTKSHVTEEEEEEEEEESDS
UniProt P35712: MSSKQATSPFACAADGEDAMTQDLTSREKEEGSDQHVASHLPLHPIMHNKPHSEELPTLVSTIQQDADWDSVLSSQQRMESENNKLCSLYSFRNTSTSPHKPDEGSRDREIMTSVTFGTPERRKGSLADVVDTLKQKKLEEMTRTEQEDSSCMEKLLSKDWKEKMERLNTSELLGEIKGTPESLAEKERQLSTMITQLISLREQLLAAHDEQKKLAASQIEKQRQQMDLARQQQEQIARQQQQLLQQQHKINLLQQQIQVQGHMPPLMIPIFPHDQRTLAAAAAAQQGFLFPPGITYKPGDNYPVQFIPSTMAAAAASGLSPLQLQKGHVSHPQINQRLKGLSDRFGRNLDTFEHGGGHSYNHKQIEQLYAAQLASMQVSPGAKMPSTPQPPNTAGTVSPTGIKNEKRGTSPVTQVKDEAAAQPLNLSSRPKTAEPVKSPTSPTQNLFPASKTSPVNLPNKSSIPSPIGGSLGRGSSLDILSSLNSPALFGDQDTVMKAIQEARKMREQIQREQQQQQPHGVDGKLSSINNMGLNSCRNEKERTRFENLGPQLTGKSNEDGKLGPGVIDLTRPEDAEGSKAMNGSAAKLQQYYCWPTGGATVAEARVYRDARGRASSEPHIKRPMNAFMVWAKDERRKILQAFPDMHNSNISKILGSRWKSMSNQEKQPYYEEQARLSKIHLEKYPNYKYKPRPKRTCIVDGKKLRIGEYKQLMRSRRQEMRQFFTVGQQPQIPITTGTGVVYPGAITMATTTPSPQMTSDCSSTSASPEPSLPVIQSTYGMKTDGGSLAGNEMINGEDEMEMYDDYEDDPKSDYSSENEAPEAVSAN
UniProt O15370: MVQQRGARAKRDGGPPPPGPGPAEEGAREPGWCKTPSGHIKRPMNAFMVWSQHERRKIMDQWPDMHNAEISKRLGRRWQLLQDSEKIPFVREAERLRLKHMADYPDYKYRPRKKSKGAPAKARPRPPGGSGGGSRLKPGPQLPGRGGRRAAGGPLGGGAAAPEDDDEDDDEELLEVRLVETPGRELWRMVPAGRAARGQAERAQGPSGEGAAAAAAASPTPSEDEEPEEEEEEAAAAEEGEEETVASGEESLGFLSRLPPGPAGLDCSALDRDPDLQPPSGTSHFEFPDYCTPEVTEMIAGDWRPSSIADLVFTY
UniProt Q9NXE4: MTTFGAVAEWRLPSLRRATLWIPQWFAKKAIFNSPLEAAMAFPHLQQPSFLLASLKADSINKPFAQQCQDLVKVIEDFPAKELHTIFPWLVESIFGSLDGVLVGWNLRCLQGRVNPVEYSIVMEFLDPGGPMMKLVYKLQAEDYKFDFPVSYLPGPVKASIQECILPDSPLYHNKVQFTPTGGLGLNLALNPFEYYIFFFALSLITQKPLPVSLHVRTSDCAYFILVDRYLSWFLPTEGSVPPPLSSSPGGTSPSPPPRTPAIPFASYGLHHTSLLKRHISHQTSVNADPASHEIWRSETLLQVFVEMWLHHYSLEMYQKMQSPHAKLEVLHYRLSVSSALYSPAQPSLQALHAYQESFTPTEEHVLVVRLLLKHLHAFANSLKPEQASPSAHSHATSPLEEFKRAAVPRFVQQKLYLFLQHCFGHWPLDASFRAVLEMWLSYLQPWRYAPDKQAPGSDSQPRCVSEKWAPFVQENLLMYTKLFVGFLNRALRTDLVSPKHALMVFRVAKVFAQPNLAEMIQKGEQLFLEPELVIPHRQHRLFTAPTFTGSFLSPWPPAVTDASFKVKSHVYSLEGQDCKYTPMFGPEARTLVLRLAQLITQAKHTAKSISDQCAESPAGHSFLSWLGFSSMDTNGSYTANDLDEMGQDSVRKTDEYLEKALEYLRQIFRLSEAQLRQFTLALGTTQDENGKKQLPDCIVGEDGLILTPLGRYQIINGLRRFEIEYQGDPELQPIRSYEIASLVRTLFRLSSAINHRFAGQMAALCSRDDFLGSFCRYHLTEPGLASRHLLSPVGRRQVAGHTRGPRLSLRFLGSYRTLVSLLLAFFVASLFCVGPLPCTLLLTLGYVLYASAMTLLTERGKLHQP
UniProt Q8IYR2: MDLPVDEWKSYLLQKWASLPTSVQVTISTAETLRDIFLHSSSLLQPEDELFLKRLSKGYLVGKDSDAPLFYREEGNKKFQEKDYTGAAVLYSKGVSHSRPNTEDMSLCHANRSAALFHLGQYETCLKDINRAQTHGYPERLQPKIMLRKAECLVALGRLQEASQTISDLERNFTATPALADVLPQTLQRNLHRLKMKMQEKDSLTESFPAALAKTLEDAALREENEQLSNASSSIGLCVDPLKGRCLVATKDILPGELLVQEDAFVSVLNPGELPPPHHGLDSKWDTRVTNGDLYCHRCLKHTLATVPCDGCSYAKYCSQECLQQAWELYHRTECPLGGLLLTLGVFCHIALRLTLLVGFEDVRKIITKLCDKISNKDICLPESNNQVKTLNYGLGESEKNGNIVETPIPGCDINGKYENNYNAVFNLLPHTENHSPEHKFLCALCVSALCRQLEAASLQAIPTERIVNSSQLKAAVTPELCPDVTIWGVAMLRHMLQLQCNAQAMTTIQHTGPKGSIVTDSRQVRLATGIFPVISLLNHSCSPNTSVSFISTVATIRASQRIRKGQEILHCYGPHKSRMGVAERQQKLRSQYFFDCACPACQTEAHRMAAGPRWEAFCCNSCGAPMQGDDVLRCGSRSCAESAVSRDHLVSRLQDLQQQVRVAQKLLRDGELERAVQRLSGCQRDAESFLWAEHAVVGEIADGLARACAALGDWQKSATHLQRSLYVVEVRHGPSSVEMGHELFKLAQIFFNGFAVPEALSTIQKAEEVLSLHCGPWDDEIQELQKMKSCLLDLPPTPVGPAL
UniProt Q9NS25: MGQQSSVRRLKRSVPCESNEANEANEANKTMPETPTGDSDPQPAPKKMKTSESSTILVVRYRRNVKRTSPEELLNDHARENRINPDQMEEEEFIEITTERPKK

pictilisib = compound: CS(=O)(=O)N1CCN(Cc2cc3nc(-c4cccc5[nH]ncc45)nc(N4CCOCC4)c3s2)CC1 [pictilisib]
How it was run: as §1

crizotinib = compound: C[C@@H](Oc1cc(-c2cnn(C3CCNCC3)c2)cnc1N)c1c(Cl)ccc(F)c1Cl [crizotinib]
How it was run: as §1

[1] = compound: C[C@H](C1=CC=C(C=C1)C(=O)NC2=C3C=CNC3=NC=C2)N
How it was run: as §1

gandotinib = compound: Cc1cc(Nc2cc(CN3CCOCC3)c3nc(C)c(Cc4ccc(Cl)cc4F)n3n2)n[nH]1 [gandotinib]
How it was run: as §1

doramapimod = compound: Cc1ccc(-n2nc(C(C)(C)C)cc2NC(=O)Nc2ccc(OCCN3CCOCC3)c3ccccc23)cc1 [doramapimod]
How it was run: as §1

bafetinib = compound: Cc1ccc(NC(=O)c2ccc(CN3CC[C@H](N(C)C)C3)c(C(F)(F)F)c2)cc1Nc1nccc(-c2cncnc2)n1 [bafetinib]
How it was run: as §1

[2] = compound: Cc1cccc(CC(=O)N2CCc3c2ccc(-c2cn(C)c4ncnc(N)c24)c3F)n1
How it was run: as §1

nilotinib = compound: Cc1cn(-c2cc(NC(=O)c3ccc(C)c(Nc4nccc(-c5cccnc5)n4)c3)cc(C(F)(F)F)c2)cn1 [nilotinib]
How it was run: as §1

[3] = compound: Cc1nc(Nc2n[nH]c3c2CN(C(=O)N[C@H](CN(C)C)c2ccccc2)C3(C)C)c2sccc2n1
How it was run: as §1

[4] = compound: Cc1ncc(-c2ccnc(Nc3ccc(S(C)(=O)=O)cc3)n2)n1C(C)C
How it was run: as §1

quisinostat = compound: Cn1cc(CNCC2CCN(c3ncc(C(=O)NO)cn3)CC2)c2ccccc21 [quisinostat]
How it was run: as §1

tipifarnib = compound: Cn1cncc1[C@@](N)(c1ccc(Cl)cc1)c1ccc2c(c1)c(-c1cccc(Cl)c1)cc(=O)n2C [tipifarnib]
How it was run: as §1

[5] = compound: NC(=O)Nc1cc(-c2cccc(F)c2)sc1C(=O)N[C@H]1CCCNC1
How it was run: as §1

[6] = compound: NC(=O)c1cnc(N[C@@H]2CCCC[C@@H]2N)nc1Nc1cccc(-n2nccn2)c1
How it was run: as §1

tozasertib = compound: Cc1cc(Nc2cc(N3CCN(C)CC3)nc(Sc3ccc(NC(=O)C4CC4)cc3)n2)n[nH]1 [tozasertib]
How it was run: as §1

duvelisib = compound: C[C@H](Nc1ncnc2nc[nH]c12)c1cc2cccc(Cl)c2c(=O)n1-c1ccccc1 [duvelisib]
How it was run: as §1

dasatinib = compound: Cc1nc(Nc2ncc(C(=O)Nc3c(C)cccc3Cl)s2)cc(N2CCN(CCO)CC2)n1 [dasatinib]
How it was run: as §1

[7] = compound: Cn1cc(-c2ccc3c(c2)CCN3C(=O)Cc2cccc(C(F)(F)F)c2)c2c(N)ncnc21
How it was run: as §1

[8] = compound: NC1(c2ccc(-c3nc4ccn5c(=O)[nH]nc5c4cc3-c3ccccc3)cc2)CCC1
How it was run: as §1

Measured: log2 fold change

SMIM4 (UniProt Q8WVI0)
inactive: lapatinib 0.132 | pictilisib -0.016 | crizotinib 0.043 | [1] -0.17 | gandotinib -0.121 | doramapimod 0.096 | bafetinib 0.632 | [2] 0.278 | nilotinib 0.079 | [3] 0.089 | [4] -0.048 | quisinostat -0.039 | tipifarnib 0.063 | [5] -0.043 | [6] 0.175

SNRPA1 (UniProt H0YMA0)
inactive: lapatinib -0.158 | [6] -0.109

SMPDL3A (UniProt Q92484)
inactive: lapatinib 0.058 | tozasertib -0.057 | [6] -0.012

SNRPD2 (UniProt K7EJB5)
inactive: lapatinib 0.005 | crizotinib -0.202 | duvelisib 0.014 | tozasertib 0.051 | doramapimod 0.105 | nilotinib -0.081 | [3] 0.005 | dasatinib -0.026 | [4] -0.094 | [7] -0.084 | quisinostat -0.267 | tipifarnib -0.075 | [5] -0.082 | [6] 0.044 | [8] 0

SNX18 isoform 2 (UniProt Q96RF0)
inactive: lapatinib 0.176 | crizotinib 0.036 | [1] -0.11 | gandotinib -0.032 | tozasertib 0.02 | doramapimod 0.122 | [2] 0.031 | nilotinib 0.21 | [3] -0.131 | [4] -0.076 | quisinostat 0.058 | tipifarnib 0.064 | [5] 0.044 | [6] -0.04 | [8] 0.132

SMIM11A (UniProt P58511)
inactive: lapatinib 0.049 | crizotinib -0.034 | tozasertib 0.104 | doramapimod -0.07 | quisinostat 0.262 | [5] -0.124 | [6] 0.07

SNX14 (UniProt Q9Y5W7)
inactive: lapatinib -0.046 | pictilisib -0.055 | crizotinib -0.197 | duvelisib -0.005 | tozasertib -0.006 | doramapimod -0.092 | bafetinib -0.005 | nilotinib -0.128 | [3] 0.012 | dasatinib 0.051 | [4] -0.195 | [7] -0.01 | quisinostat -0.539 | tipifarnib -0.07 | [5] 0.176 | [6] 0.009 | [8] -0.451

SMARCC2 isoform 3 (UniProt Q8TAQ2)
inactive: lapatinib 0.131 | pictilisib 0.018 | crizotinib 0.176 | duvelisib -0.015 | doramapimod -0.064 | bafetinib -0.238 | nilotinib 0.009 | [3] 0.045 | dasatinib 0.087 | [4] 0.148 | [7] -0.137 | quisinostat -0.125 | tipifarnib 0.104 | [5] 0.079 | [6] 0.066

SNX4 (UniProt O95219)
inactive: pictilisib 0.019 | crizotinib -0.013 | [1] -0.003 | duvelisib -0.085 | gandotinib -0.029 | tozasertib 0.001 | doramapimod 0.054 | bafetinib 0.009 | [2] 0.005 | nilotinib 0.066 | [3] -0.047 | dasatinib -0.012 | [4] -0.004 | [7] 0.033 | quisinostat 0.065 | tipifarnib 0.07 | [5] -0.027 | [8] 0.048

SNAPC2 (UniProt Q13487)
inactive: pictilisib 0.08 | crizotinib -0.007 | [1] 0.024 | duvelisib -0.129 | gandotinib 0.01 | doramapimod 0.03 | bafetinib -0.537 | [2] -0.033 | nilotinib 0.066 | [3] 0 | dasatinib -0.24 | [4] -0.067 | [7] -0.122 | quisinostat -0.021 | tipifarnib -0.106 | [5] 0.029 | [8] 0

SNAPC4 (UniProt Q5SXM2)
inactive: pictilisib -0.054 | [1] 0.002 | gandotinib -0.109 | tozasertib 0.012 | bafetinib -0.022 | [2] 0.041 | nilotinib 0.05 | [3] -0.086 | [4] 0.002 | tipifarnib -0.063

SNAPC5 (UniProt O75971)
inactive: [1] 0.111 | gandotinib -0.162 | [2] -0.073 | nilotinib 0.059 | [3] 0.263 | [4] 0.066 | tipifarnib -0.17

Two records drawn at random from those above, as already listed:
SNRPD2 (UniProt K7EJB5)
inactive: lapatinib 0.005 | crizotinib -0.202 | duvelisib 0.014 | tozasertib 0.051 | doramapimod 0.105 | nilotinib -0.081 | [3] 0.005 | dasatinib -0.026 | [4] -0.094 | [7] -0.084 | quisinostat -0.267 | tipifarnib -0.075 | [5] -0.082 | [6] 0.044 | [8] 0

SNX14 (UniProt Q9Y5W7)
inactive: lapatinib -0.046 | pictilisib -0.055 | crizotinib -0.197 | duvelisib -0.005 | tozasertib -0.006 | doramapimod -0.092 | bafetinib -0.005 | nilotinib -0.128 | [3] 0.012 | dasatinib 0.051 | [4] -0.195 | [7] -0.01 | quisinostat -0.539 | tipifarnib -0.07 | [5] 0.176 | [6] 0.009 | [8] -0.451

Remaining list, next part:

SNX13 (UniProt Q9Y5W8)
inactive: pictilisib -0.117 | crizotinib -0.075 | duvelisib -0.066 | doramapimod 0.118 | bafetinib -0.124 | dasatinib 0.066 | [7] -0.061 | quisinostat 0.083 | [5] 0.01 | [8] 0.023

SOX6 (UniProt P35712)
inactive: pictilisib -0.141 | crizotinib -0.119 | [1] -0.042 | duvelisib -0.123 | gandotinib 0.04 | tozasertib 0.043 | doramapimod 0.084 | bafetinib -0.026 | [2] 0.005 | nilotinib 0.092 | [3] 0.14 | dasatinib 0.066 | [4] -0.076 | [7] 0.026 | quisinostat -0.149 | tipifarnib 0.024 | [5] -0.049 | [8] -0.122

SOX12 (UniProt O15370)
inactive: pictilisib -0.009 | crizotinib 0.043 | [1] -0.03 | duvelisib -0.073 | gandotinib 0.282 | doramapimod 0.012 | bafetinib -0.055 | [2] -0.003 | dasatinib -0.073 | [7] -0.246 | quisinostat -0.012 | [5] -0.059

SMPD4 isoform 4 (UniProt Q9NXE4)
inactive: pictilisib -0.038 | [1] 0.067 | gandotinib -0.146 | tozasertib 0.057 | bafetinib -0.079 | [2] -0.062 | nilotinib 0.165 | [3] -0.308 | [4] -0.121 | tipifarnib -0.072

SMYD4 (UniProt Q8IYR2)
inactive: crizotinib -0.116 | [1] -0.075 | duvelisib 0.026 | gandotinib 0.024 | doramapimod -0.121 | [2] 0.144 | dasatinib -0.472 | [7] -0.04 | quisinostat -0.271 | [5] 0.027 | [8] 0.211

SON isoform 6 (UniProt P18583)
inactive: nilotinib -0.091 | [3] -0.186 | [4] 0.154 | tipifarnib 0.06

SPANXB1 (UniProt Q9NS25)
inactive: [1] 0.098 | gandotinib -0.34 | [2] 0.336
